About 2,100 (0.66%) of roughly 320,000 compounds were called active. Inconclusive means that the source gave no clear call. Such entries were picked first, then a sample of the others. Calls come from the whole dose curve; as a rule, active = well fitted inhibition curve with a large enough effect in the signal ratio, with a control signal flat (not every such curve was filed as active); inconclusive = small, poorly fitted or top-dose-only effect, or effect the other way, or a change in a side signal; inactive = flat fitted curve, though single readings scatter; the % refers to the signal ratio. Potencies of inconclusive entries are doubtful fits and often do not repeat.
experiment: qHTS Assay for Lipid Storage Modulators in Drosophila S3 Cells; conditions: BODIPY lipid droplet fluorescence, 18-24 h, cells fed with added oleic acid; lipid storage change, negative = inhibition: at 46.1 µM (top of the series) unless noted
In short: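 Drosophila S3 cells loaded with oleic acid (400 uM, as added) and compounds at several concentrations; lipid droplets imaged by 488-nm laser-scanning cytometry, 500–530 nm intensity and object ratio to cell channel. Percent activity normalized to 20 uM Triacsin C.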
% is set by controls: 0 for no effect and ±100 for the full control effect; potency is the fitted concentration of half-maximal effect.

Lipid storage change, negative = inhibition, inconclusive:
CCOc1[nH]n(-c2ccccc2)c(=O)c1C=NCC(=O)OC 37.6%, CCOC(=O)c1[nH]c(C)c(CN(Cc2ccco2)C(=O)C(F)(F)F)c1C -16.4%, Cc1ccc(C(=O)Oc2coc(CSc3nnc(NC(=O)C4CC4)s3)cc2=O)cc1 2.53%, CCN(CC)c1ccc(/C=C2\SC(N)=NC2=O)cc1 -49.9%, CN(CC(=O)Nc1ccc(Cl)c(C(F)(F)F)c1)C(=O)Cc1ccsc1, CCOC(=O)c1ccc(NC(=O)N2CCOCC2)cc1 -23.6%, Cc1ccccc1-n1ncc2c1CC(C)(C)CC2NC(=O)CCn1cncn1 (stereo not given) 31.1%, C/C(CC(=O)Nc1cccc(Cl)c1Cl)=N\NC(=O)c1ccccc1N 8.01%, Cc1c(NC(=O)C(C)OC(=O)c2cccnc2Cl)c(=O)n(-c2ccccc2)n1C (stereo not given) -43.3%, Cc1c(C(=O)Nc2c(N)nc(SCC(=O)NCC3CCCO3)[nH]c2=O)cccc1[N+](=O)[O-] (stereo not given) 1.49%, CCOC(=O)C1CCCN(Cc2nc(N)nc(Nc3ccc(Cl)cc3)n2)C1 (stereo not given) 49.2%, COc1ccc2cc(Br)ccc2c1CC(=O)N(C)C 42.6%, CCS(=O)(=O)N1Cc2ccccc2CC1C(=O)N(C)Cc1ccc(OC)c(F)c1 (stereo not given) 44.9%, O=C(NCc1ccc(/C=c2\sc3n(c2=O)CCN=3)o1)C(=O)Nc1ccccc1 -2.3%, Cc1cccc(CS(=O)(=O)Cc2ccc(C(=O)NCc3cccs3)o2)c1 -26.5%, CCCCn1nc(CC(=O)O)c2ccccc2c1=O -11.2%, NC(=O)c1cc(-c2ccccc2)sc1NC(=O)CN1CCCCC1 -7.97%, CN(C)S(=O)(=O)c1ccc(C(=O)NNc2nc(-c3ccccc3)c3cc(Br)ccc3n2)cc1 17.2%, COc1ccccc1C1(O)C(=O)Nc2ccccc21 (stereo not given) -1.61%, CC1(C)CC(NC(=O)C2CCN(S(=O)(=O)c3cccc(C(F)(F)F)c3)CC2)CC(C)(C)N1 -0.587%, O=C(CSc1ccc(Br)cc1)N1CCN(S(=O)(=O)c2ccccc2)CC1 -24.4%, CCOC(=O)N1CCC2(CC1)NCCc1c2[nH]c2ccccc12 -6.55%, Cc1ccc(N2C(=O)CN(Cc3sccc3C)C2=S)cc1C -50.8%, COc1ccc(C(=O)NCCCNC(=O)c2cnccn2)cc1Br -109%, CCOCCCNc1nc2c(C)cccn2c(=O)c1/C=C1\SC(=S)N(CC(C)C)C1=O -26%, Cn1c(NC(=O)CC(C)(C)C)cc(=O)n(C)c1=O 16.7%, Cc1ccc(C(=O)N2CC3(C)CN(C(=O)c4ccc(C)cc4)CC(C)(C2)C3=O)cc1 -30.5%, O=C(Nc1nc2c(s1)CN(Cc1ccccc1)CC2)C1CCC1 9.87%, COc1ccc(NC(=O)CNS(=O)(=O)c2ccccc2)cc1Cl 66.9%, O=C(CSc1nnc(NC(=O)c2ccccc2F)s1)NC1CCCC1 72.6%, COc1nc(Cl)cn(-c2ccc(C)cc2)c1=O 15.8%, Cc1cc(/C=N/NC(=O)c2ccncc2)c(C)n1-c1cccc(C(F)(F)F)c1 2.51%, N/C(=N\OC(=O)CC1CCCCC1)c1ccc([N+](=O)[O-])cc1 12.8%, N#Cc1c(Sc2ncc(C(F)(F)F)cc2Cl)nsc1C/C=N\OCc1ccccc1Br -14.6%, Cc1ccc(S(=O)(=O)Nc2ccccc2C(=O)N2CCCCC2)cc1 108%, CC(Sc1nnc(COc2ccc3ccccc3c2)n1C)C(=O)O (stereo not given) 0.583%, C[C@@H]1CC=C[C@H]2[C@H]1C(=O)N(Cc1ccccc1)[C@H]2c1ccc(Br)cc1F -11.3%, C#CCCc1ccccc1/C=[N+](/C)[O-] 7.13%, Cc1n[nH]c(=O)c2c(NC(=O)COC(=O)/C=C/c3cccc(C(F)(F)F)c3)oc(C)c12 29.9%, COc1ccc(S(=O)(=O)N(C)CC(=O)Nc2ccccc2C(F)(F)F)cc1OC 54.2%, CC(=O)N/C(=N\OCc1ccc(Br)cc1)c1nonc1NC(C)=O 16.5%, COc1ccc2nc(Nc3ccccc3OC)sc2c1 45.9%, COc1cc(N)c(Cl)cc1C(=O)N[C@H]1CCN(CCCOc2ccc(F)cc2)C[C@H]1OC 19.1%, Oc1ccc(C=Nc2cccc3ccccc23)c(O)c1 -1.65%, CCC(=O)Nc1ccc(S(=O)(=O)Nc2c(C)nc3nc[nH]n3c2=O)cc1 34.5%, Cc1cc(C)c2c(CC(=O)O)c(C)[nH]c2c1 38.4%, N#C/C(=C\c1ccc[nH]1)Sc1nc2ccccc2s1 39.2%, O=c1ccc(-c2ccc(S(=O)(=O)Nc3cccc([N+](=O)[O-])c3)s2)n[nH]1 -20.6%, CN(C)S(=O)(=O)c1ccc(C(=O)Nc2nc(-c3cccs3)cs2)cc1 15.7%, COc1ccc(OC(=O)c2c(C)nn(-c3ccccc3)c2C)cc1 -26.3%, CC(C)N1C(=S)N(Cc2ccco2)C(=O)C1CC(=O)Nc1ccccc1 (stereo not given) -17.2%, Cc1ccc(NC(=O)COc2ccc(-n3ccnc3)cc2)cc1Cl 0.306%, CC(C)c1ccc(OCC(=O)NCc2ccccc2)cc1 70.4%, C/C(CC(=O)NC(C)C)=N\NC(=O)C(c1ccccc1)c1ccccc1 25.2%, N#Cc1cc2sc3nc4ccccc4n3c2cc1C#N 12.8%, COc1ccc(NC(=O)C2CCCCN2CC(=O)OCc2ccccc2)cc1OC (stereo not given) -172%

Lipid storage change, negative = inhibition, inactive:
COc1cccc(NC(=O)C(Cc2ccccc2)n2cccc2)c1 (stereo not given) 15%, COc1ccccc1NS(=O)(=O)c1ccc2oc(SC(C)C(=O)N3CCNC3=O)nc2c1 (stereo not given) 3.7%, Cc1ccc(S(=O)(=O)N2CCC(C(=O)N[C@@H](C)C(=O)NCCc3ccccc3)CC2)cc1 11.5%, CCCC(=O)Nc1ccc2oc(=O)ccc2c1 -2.96%, Cc1[nH]n(-c2ccccc2)c(=O)c1N=O -14.1%, COCCN1C(=O)C(O)=C(C(=O)c2ccco2)C1c1cccc(Oc2ccccc2)c1 (stereo not given) 3.16%

Potency, inconclusive:
CCOC(=O)C1=C(C)NC(=O)NC1c1ccc(N2CCC(c3ccccc3)=N2)cc1 (stereo not given) 16.4 µM [falling, partial curve], O=S(=O)(c1ccc(-c2csc(-c3cccnc3)n2)cc1)N1CCCC1 1.64 µM [activator, partial curve], O=C(NC1CCSc2ccccc21)c1cccc(Cl)c1 (stereo not given) 20.6 µM [falling, single point], COc1cc(C(=O)NCc2nnc(SCC(=O)NC3CCCCC3)o2)cc(OC)c1OC 6.51 µM [activator, single point], O=C(Cc1ccc(Br)cc1)Nc1ncc([N+](=O)[O-])s1 14.6 µM [falling, partial curve, poor fit], O=C(OCCN=C1NS(=O)(=O)c2ccccc21)c1ccccc1F 29.1 µM [falling, single point], COc1ccc(CNC(=O)c2ccc(=O)oc2)cc1OC 0.0517 µM [falling, full curve], CCN(CC(=O)NC1CCCC1)S(=O)(=O)c1ccc(Br)cc1 18.4 µM [falling, single point], CCn1c(CNc2ccccc2Cl)nnc1SCC(=O)OC1CCCCC1 0.146 µM [falling, full curve], Cc1cc(C)c(S(=O)(=O)c2ccc(Cl)cc2)c(Cl)n1 0.326 µM [falling, full curve], COc1ccc(C)cc1N(C(=O)c1snc(C(N)=O)c1N)C(C(=O)NC1CCCCC1)c1ccc(C)o1 (stereo not given) 29.1 µM [falling, single point], O=C(Nc1cc(=O)c2ccccc2o1)N1CCOCC1 0.58 µM [activator, partial curve, poor fit], CC1CCCCC1NC(=O)CN1CCC(NC(=O)c2ccc([N+](=O)[O-])cc2)CC1 (stereo not given) 0.103 µM [activator, full curve, poor fit], C=CCN1C(=O)/C(=C/c2ccc(O)c(OC)c2)S/C1=N/c1nccs1 1.46 µM [activator, partial curve, poor fit], Cc1ccc(S(=O)(=O)NCCN=C(CN2CCOCC2)NS(=O)(=O)c2ccc(C)cc2)cc1 11.6 µM [rising, partial curve], CCCn1c(SCc2ccccc2)nc2c1c(=O)[nH]c(=O)n2C 23.1 µM [activator, partial curve], Cc1cccc(-n2c(=O)c3ccccc3n3c(=S)[nH]nc23)c1C 0.164 µM [falling, full curve, poor fit], Cc1ccc(-n2nc3cc(C)c(NC(=S)NC(=O)/C=C/c4ccco4)cc3n2)cc1 0.82 µM [activator, single point]
